In assay [1] the target is T1, Tumor necrosis factor receptor-associated factor 2 (human (endogenous in HT1080)), Q12933.
T1 chain: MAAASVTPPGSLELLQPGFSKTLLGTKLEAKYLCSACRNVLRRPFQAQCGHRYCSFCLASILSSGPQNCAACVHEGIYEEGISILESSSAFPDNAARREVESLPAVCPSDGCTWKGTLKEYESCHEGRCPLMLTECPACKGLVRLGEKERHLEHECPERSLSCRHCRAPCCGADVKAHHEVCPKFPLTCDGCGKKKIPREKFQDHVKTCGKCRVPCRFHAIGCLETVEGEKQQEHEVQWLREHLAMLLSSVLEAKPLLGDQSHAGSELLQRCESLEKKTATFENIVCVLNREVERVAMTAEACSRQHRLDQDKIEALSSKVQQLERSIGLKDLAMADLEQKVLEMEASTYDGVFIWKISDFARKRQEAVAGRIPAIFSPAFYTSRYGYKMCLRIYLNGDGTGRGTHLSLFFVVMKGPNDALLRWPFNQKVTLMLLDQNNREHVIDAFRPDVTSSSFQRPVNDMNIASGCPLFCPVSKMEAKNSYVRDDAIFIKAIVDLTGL
Description: co-IP; endogenous proteins; HT1080 cell extracts immunoprecipitated with anti-TRAF2 antibody, then immunoblotting; cells treated with 50 ng/mL TNF-α for the indicated periods (Figure 5A) or, after control siRNA, with TNF-α and cycloheximide for 4 h (Figure 6C). Particulars: remark: other sources report otherwise. (Immunoblotting shows a protein as a band on a membrane.)

Assay [2] concerns the target T2, caspase-8 (human (endogenous in HT1080)), Q14790.
T2 chain: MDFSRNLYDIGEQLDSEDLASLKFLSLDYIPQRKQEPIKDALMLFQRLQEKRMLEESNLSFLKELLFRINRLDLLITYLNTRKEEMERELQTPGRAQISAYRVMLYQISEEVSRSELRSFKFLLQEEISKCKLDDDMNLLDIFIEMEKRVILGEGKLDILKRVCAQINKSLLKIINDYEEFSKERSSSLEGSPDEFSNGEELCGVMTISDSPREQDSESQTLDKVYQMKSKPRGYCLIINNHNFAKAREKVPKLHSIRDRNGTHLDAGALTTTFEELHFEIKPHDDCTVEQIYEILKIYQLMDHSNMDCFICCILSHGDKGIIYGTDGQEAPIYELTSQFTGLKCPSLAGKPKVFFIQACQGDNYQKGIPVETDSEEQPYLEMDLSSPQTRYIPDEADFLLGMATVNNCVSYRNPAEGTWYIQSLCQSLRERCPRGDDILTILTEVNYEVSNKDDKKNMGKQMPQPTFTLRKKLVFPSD
Description: co-IP; complex II analysis: HT1080 cells (control, BIG1, TRAF2 or BIG2 siRNA) treated with 50 ng/mL TNF-α and cycloheximide for 4 h; supernatants precleared with Sepharose 6B, immunoprecipitated with caspase-8 antibody on protein G-Sepharose, immunoblotting. Particulars: remark: other sources report otherwise.

No constants are given. Whether binding was seen depends on the method and setting. Binding seen in cells or lysates may run through a third protein. Some binding calls cover weakened binding; strength is not graded here.

B1: caspase-8, Q14790 1-479 (enzyme)
chain: MDFSRNLYDIGEQLDSEDLASLKFLSLDYIPQRKQEPIKDALMLFQRLQEKRMLEESNLSFLKELLFRINRLDLLITYLNTRKEEMERELQTPGRAQISAYRVMLYQISEEVSRSELRSFKFLLQEEISKCKLDDDMNLLDIFIEMEKRVILGEGKLDILKRVCAQINKSLLKIINDYEEFSKERSSSLEGSPDEFSNGEELCGVMTISDSPREQDSESQTLDKVYQMKSKPRGYCLIINNHNFAKAREKVPKLHSIRDRNGTHLDAGALTTTFEELHFEIKPHDDCTVEQIYEILKIYQLMDHSNMDCFICCILSHGDKGIIYGTDGQEAPIYELTSQFTGLKCPSLAGKPKVFFIQACQGDNYQKGIPVETDSEEQPYLEMDLSSPQTRYIPDEADFLLGMATVNNCVSYRNPAEGTWYIQSLCQSLRERCPRGDDILTILTEVNYEVSNKDDKKNMGKQMPQPTFTLRKKLVFPSD
With B1, the binding entry in assay [1] was “binds”.

B2: Tumor necrosis factor receptor-associated factor 2, Q12933 1-501 (protein)
chain: MAAASVTPPGSLELLQPGFSKTLLGTKLEAKYLCSACRNVLRRPFQAQCGHRYCSFCLASILSSGPQNCAACVHEGIYEEGISILESSSAFPDNAARREVESLPAVCPSDGCTWKGTLKEYESCHEGRCPLMLTECPACKGLVRLGEKERHLEHECPERSLSCRHCRAPCCGADVKAHHEVCPKFPLTCDGCGKKKIPREKFQDHVKTCGKCRVPCRFHAIGCLETVEGEKQQEHEVQWLREHLAMLLSSVLEAKPLLGDQSHAGSELLQRCESLEKKTATFENIVCVLNREVERVAMTAEACSRQHRLDQDKIEALSSKVQQLERSIGLKDLAMADLEQKVLEMEASTYDGVFIWKISDFARKRQEAVAGRIPAIFSPAFYTSRYGYKMCLRIYLNGDGTGRGTHLSLFFVVMKGPNDALLRWPFNQKVTLMLLDQNNREHVIDAFRPDVTSSSFQRPVNDMNIASGCPLFCPVSKMEAKNSYVRDDAIFIKAIVDLTGL
As to B2, the binding entry in assay [2] was “binds”.

B3: receptor-interacting protein 1, Q13546 1-671 (protein)
chain: MQPDMSLNVIKMKSSDFLESAELDSGGFGKVSLCFHRTQGLMIMKTVYKGPNCIEHNEALLEEAKMMNRLRHSRVVKLLGVIIEEGKYSLVMEYMEKGNLMHVLKAEMSTPLSVKGRIILEIIEGMCYLHGKGVIHKDLKPENILVDNDFHIKIADLGLASFKMWSKLNNEEHNELREVDGTAKKNGGTLYYMAPEHLNDVNAKPTEKSDVYSFAVVLWAIFANKEPYENAICEQQLIMCIKSGNRPDVDDITEYCPREIISLMKLCWEANPEARPTFPGIEEKFRPFYLSQLEESVEEDVKSLKKEYSNENAVVKRMQSLQLDCVAVPSSRSNSATEQPGSLHSSQGLGMGPVEESWFAPSLEHPQEENEPSLQSKLQDEANYHLYGSRMDRQTKQQPRQNVAYNREEERRRRVSHDPFAQQRPYENFQNTEGKGTAYSSAASHGNAVHQPSGLTSQPQVLYQNNGLYSSHGFGTRPLDPGTAGPRVWYRPIPSHMPSLHNIPVPETNYLGNTPTMPFSSLPPTDESIKYTIYNSTGIQIGAYNYMEIGGTSSSLLDSTNTNFKEEPAAKYQAIFDNTTSLTDKHLDPIRENLGKHWKNCARKLGFTQSQIDEIDHDYERDGLKEKVYQMLQKWVMREGIKGATVGKLAQALHQCSRIDLLSSLIYVSQN
As for B3, the binding entry in assay [1] is “binds”.

The record behind these values is paper PMC5133869.
